According to PubChem BioAssay AID1671190 (National Center for Advancing Translational Sciences (NCATS), 2021):
In all, about 580,000 compounds went through this assay and about 6,100 (1.1%) were called active. This list was built around the results that the source calls inconclusive (neither active nor inactive); the mix of calls is not that of the screen. Calls follow the shape of the dose curve; as a rule, active = well fitted inhibition curve with a large enough effect; inconclusive = small, poorly fitted or top-dose-only effect, or another doubt; inactive = no such curve, though single readings can be large or run the other way. Potencies beside an inconclusive call are fits to weak or partial responses and may not hold up.

The chains behind the UniProt entries cited, without tags or fusion partners. Where a name states a change or a piece, a line headed by the entry shows the natural chain unless it says otherwise.
UniProt P18054: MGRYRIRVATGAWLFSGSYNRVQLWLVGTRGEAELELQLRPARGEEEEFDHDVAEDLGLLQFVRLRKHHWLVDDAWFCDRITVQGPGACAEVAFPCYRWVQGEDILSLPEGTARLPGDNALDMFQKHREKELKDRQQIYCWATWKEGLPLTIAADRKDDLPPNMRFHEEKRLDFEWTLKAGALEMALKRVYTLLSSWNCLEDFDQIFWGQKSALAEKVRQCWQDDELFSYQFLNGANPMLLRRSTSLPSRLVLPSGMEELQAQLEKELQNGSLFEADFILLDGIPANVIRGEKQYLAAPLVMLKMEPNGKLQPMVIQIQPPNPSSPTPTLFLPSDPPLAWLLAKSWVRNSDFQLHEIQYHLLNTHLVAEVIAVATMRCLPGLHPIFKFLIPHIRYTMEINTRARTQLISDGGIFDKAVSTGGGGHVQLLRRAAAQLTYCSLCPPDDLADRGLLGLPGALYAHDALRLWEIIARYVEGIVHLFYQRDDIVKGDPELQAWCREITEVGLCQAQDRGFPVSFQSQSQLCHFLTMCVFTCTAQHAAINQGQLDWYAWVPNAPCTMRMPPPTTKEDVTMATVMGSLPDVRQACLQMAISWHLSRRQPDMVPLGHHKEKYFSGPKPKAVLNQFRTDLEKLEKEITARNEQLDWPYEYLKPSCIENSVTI

Target: Polyunsaturated fatty acid lipoxygenase ALOX12 (Homo sapiens) (UniProt P18054)
Assay: Primary qHTS assay for inhibitors of human arachidonate 12S-lipoxygenase (ALOX12): Round 2
Conditions: purified 12hLO, xylenol orange hydroperoxide absorbance; activity change, negative = inhibition: at 108 µM (top of the series) unless noted
How it was run: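 Purified human 12hLO at 150 nM in 25 mM Hepes, 0.01% Triton X-100, pH 7.0, preincubated 15 min at room temperature with compound. Reaction started with 40 uM arachidonic acid, 30 min at room temperature. Hydroperoxide measured by Fe-xylenol orange, 573/405 nm absorbance ratio.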
% is scaled to controls: 0 for no effect and ±100 for the full control effect; potency is read from the fitted curve at half-maximal effect.

Row | Compound | Potency | activity change, negative = inhibition
1 | Cc1c(NC(=S)NC(=O)c2ccccc2Cl)c(=O)n(-c2ccccc2)n1C | inconclusive: 39.8 µM [inhibitor, partial curve, poor fit] | –
2 | OCCN1CCN(CC(O)COCCOc2ccc(Br)cc2)CC1 (centres undefined) | – | inactive: -4.13%
3 | O=C(Cn1cnc(Cl)c1Cl)c1ccc(F)cc1 | inconclusive: 56.2 µM [inhibitor, partial curve, poor fit] | –
4 | COC(=O)[C@]12CCCCC=C1N(Cc1cccc3ccccc13)C(=O)[C@H](CC(=O)NCCC(C)C)C2 | inconclusive: 112 µM [inhibitor, single point] | –
5 | CC(C)(C)c1nc(SCC(=O)Nc2ccc(N3CCOCC3)cc2)c2ccccc2n1 | inconclusive: 100 µM [inhibitor, single point] | –
6 | Cc1occc1C(=O)Nc1nc(CC(=O)Nc2ccc3c(c2)CCC3)cs1 | – | inactive: -16.7%
7 | N#Cc1ccc(N2C[C@@H]3OCC(=O)N(CC4CCCCC4)[C@@H]3C2)nc1 | – | inactive: 8.06% [at 176 µM]
8 | Cc1cccc(Oc2cc([N+](=O)[O-])cc3c2C(=O)Nc2ccccc2O3)c1 | inconclusive: 56.2 µM [inhibitor, partial curve, poor fit] | –
9 | COc1ccc(C2=NN(C(=O)CCC(=O)O)C(c3cccs3)C2)cc1 (centres undefined) | – | inactive: -1.49%
10 | CN(Cc1ccccc1C#N)Cc1ccccc1N1CCCCC1 | inconclusive: 1.58 µM [inhibitor, full curve, poor fit] | –
11 | COC(=O)C1OC(OC2C(OC3CC[C@@]4(C)C(CC[C@]5(C)C4C(=O)C=C4C6C[C@@](C)(C(=O)OC)CC[C@]6(C)CC[C@]45C)C3(C)C)OC(C(=O)OC)C(OC(C)=O)C2OC(C)=O)C(OC(C)=O)C(OC(C)=O)C1OC(C)=O (some centres undefined) | – | inactive: 12%
12 | CCCCCOc1ccc(C(=O)C(c2ccccc2)N2CCOCC2)cc1 (centres undefined) | inconclusive: 35.5 µM [inhibitor, partial curve, poor fit] | –
13 | CCCCc1ccc(NC(=O)CSc2nc(=O)n(CCCN3CCOCC3)c3c2CCC3)cc1 | inconclusive: 50.1 µM [inhibitor, partial curve, poor fit] | –
14 | CC(=O)c1ccc(NC(=O)c2ccc(-c3nc(CSc4ccc(C)cc4)c(C)o3)cc2)cc1 | inconclusive: 141 µM [inhibitor, single point] | –
15 | CCc1ccc(NC(=O)c2cnc3c(-c4ccccc4)c(C)nn3c2C)cc1 | inconclusive: 126 µM [inhibitor, partial curve, poor fit] | –
16 | O=C(Nc1ccc(Br)cc1)c1ccc2ncsc2c1 | inconclusive: 44.7 µM [inhibitor, partial curve, poor fit] | –
17 | NC1=NC(c2ccc(Br)cc2)n2c(nc3ccccc32)N1 (centres undefined) | inconclusive: 100 µM [inhibitor, partial curve, poor fit] | –
18 | O=c1c2ccccc2sn1-c1cccc(Cl)c1 | inconclusive: 0.224 µM [inhibitor, full curve, poor fit] | –
19 | NC(=O)C1CCCN(C(=O)c2[nH]c(C(F)(F)F)nc2-c2ccccc2)C1 (centres undefined) | inconclusive: 0.891 µM [inhibitor, full curve, poor fit] | –
20 | O=C1CC(c2ccco2)CC2=C1C=Nc1ccccc1N2 (centres undefined) | inconclusive: 56.2 µM [inhibitor, partial curve, poor fit] | –

Row | Compound | Potency | activity change, negative = inhibition
21 | Cc1ccc(NC(=S)NCc2ccc3[nH]c4c(c3c2)CCCC4)cc1 | inconclusive: 44.7 µM [inhibitor, partial curve, poor fit] | –
22 | COC(CNC(=O)C1CCN(C(=O)c2cc3oc(C)cc3n2Cc2c(F)cccc2Cl)CC1)OC | – | inactive: -12.7%
23 | COc1cccc(Cn2c(C)c(CNCc3cccc(C)c3)c(C(=O)O)c2C)c1 | inconclusive: 126 µM [inhibitor, partial curve, poor fit] | –
24 | Cc1ccc(NC(=O)C(C)Sc2ccc(C)cc2C)cc1 (centres undefined) | inconclusive: 22.4 µM [inhibitor, partial curve, poor fit] | –
25 | COCCN(C(=O)CSc1nnc(-c2ccccc2F)n1N)c1c(N)n(Cc2ccccc2)c(=O)[nH]c1=O | inconclusive: 100 µM [inhibitor, single point] | –
26 | COc1ccc(-c2noc(N3CCC(C(=O)Nc4ccccc4F)CC3)n2)cc1 | – | inactive: 3.93%
27 | Cc1cc(C(=O)CCl)c(C)n1CCc1ccc(F)cc1 | inconclusive: 100 µM [inhibitor, single point] | –
28 | CCOC(=O)c1ncc2[nH]c3cccc(OC(C)C)c3c2c1C | inconclusive: 35.5 µM [inhibitor, single point] | –
29 | Cc1ccc(O)c(C(=O)c2cnc3c(c2)COc2ccc(C)cc2-3)c1 | – | inactive: -6.09%
30 | Cc1cnc2c(S(=O)(=O)N3CCCCC3C(N)=O)cccc2c1 (centres undefined) | inconclusive: 25.1 µM [inhibitor, partial curve, poor fit] | –
31 | Cc1cc(C)c(OCC(O)CN2CCN(C(=O)c3ccccc3)CC2)c(C)c1 (centres undefined) | inconclusive: 0.631 µM [inhibitor, full curve, poor fit] | –
32 | COc1ccc(-c2oc3ccccc3c2C#Cc2cncn2C)cc1 | inconclusive: 44.7 µM [inhibitor, partial curve, poor fit] | –
33 | Cc1cccc(OCc2n[nH]c(=S)n2Cc2ccccc2)c1 | inconclusive: 44.7 µM [inhibitor, partial curve, poor fit] | –
34 | CC(C)c1ccccc1NC(=O)Cn1cccc1-c1nc(-c2ccc(F)cc2)no1 | inconclusive: 28.2 µM [inhibitor, full curve] | –
35 | COc1cc(/C=N/Nc2ccc(F)cc2F)cc(OC)c1OC | inconclusive: 89.1 µM [inhibitor, single point] | –
36 | C/C=C/c1ccc(OCC(=O)OCc2csc(Nc3ccc(C)cc3)n2)c(OC)c1 | inconclusive: 112 µM [inhibitor, partial curve, poor fit] | –
37 | Cc1cc(C)cc(NC(=O)C2CCN(c3ncnc4c3sc3ncccc34)CC2)c1 | – | inactive: -4.97%
38 | O=C(NCc1ccccc1)c1ccc(N2CCC3(CC2)CC(c2ccc(Cl)cc2)=NO3)c([N+](=O)[O-])c1 | – | inactive: 11.6%
39 | COC(=O)c1ccc(Cn2nnc3c(=O)[nH]c(C4CCN(S(=O)(=O)c5cc(C)ccc5C)CC4)nc32)cc1 | – | inactive: -10.2%

From no. 27 as far as 36, copied from above:
Row | Compound | Potency | activity change, negative = inhibition
27 | Cc1cc(C(=O)CCl)c(C)n1CCc1ccc(F)cc1 | inconclusive: 100 µM [inhibitor, single point] | –
28 | CCOC(=O)c1ncc2[nH]c3cccc(OC(C)C)c3c2c1C | inconclusive: 35.5 µM [inhibitor, single point] | –
29 | Cc1ccc(O)c(C(=O)c2cnc3c(c2)COc2ccc(C)cc2-3)c1 | – | inactive: -6.09%
30 | Cc1cnc2c(S(=O)(=O)N3CCCCC3C(N)=O)cccc2c1 (centres undefined) | inconclusive: 25.1 µM [inhibitor, partial curve, poor fit] | –
31 | Cc1cc(C)c(OCC(O)CN2CCN(C(=O)c3ccccc3)CC2)c(C)c1 (centres undefined) | inconclusive: 0.631 µM [inhibitor, full curve, poor fit] | –
32 | COc1ccc(-c2oc3ccccc3c2C#Cc2cncn2C)cc1 | inconclusive: 44.7 µM [inhibitor, partial curve, poor fit] | –
33 | Cc1cccc(OCc2n[nH]c(=S)n2Cc2ccccc2)c1 | inconclusive: 44.7 µM [inhibitor, partial curve, poor fit] | –
34 | CC(C)c1ccccc1NC(=O)Cn1cccc1-c1nc(-c2ccc(F)cc2)no1 | inconclusive: 28.2 µM [inhibitor, full curve] | –
35 | COc1cc(/C=N/Nc2ccc(F)cc2F)cc(OC)c1OC | inconclusive: 89.1 µM [inhibitor, single point] | –
36 | C/C=C/c1ccc(OCC(=O)OCc2csc(Nc3ccc(C)cc3)n2)c(OC)c1 | inconclusive: 112 µM [inhibitor, partial curve, poor fit] | –
